# Reference: patent publication US7803749B2, “Peptide inhibitors of MKK7 kinase binding to insulin binding proteins” (Xigen SA, priority 2002, dated 2010)
# Part of at least one peptide drawing is inferred or uncertain, most often the ends. Residues, ends and D or L forms follow the SMILES beside them.
# Legend:
# Pancreatic βTC-3 cells = assay: IL-1β-induced pancreatic β-cell death, apoptotic counts after Hoechst/PI staining; assay type: cell-based; details: IL-1β 10 ng/mL, 48 hours, FIG. 3
# Rat cortical neurons = assay: NMDA-induced death of cortical neurons in culture (Hoechst/PI staining, LDH release); assay type: cell-based; details: 1 μM peptide, Hoechst/PI and LDH released in the medium, FIGS. 5A-5B
smiles,measurement,setting,value
CSCC[C@H](NC(=O)CNC(=O)[C@@H](NC(=O)[C@H](CO)NC(=O)[C@@H](NC(=O)[C@H](CO)NC(=O)[C@H](CCCNC(=N)N)NC(=O)[C@H](CCCNC(=N)N)NC(=O)[C@H](CCCNC(=N)N)NC(=O)[C@H](CCC(N)=O)NC(=O)[C@H](CCCNC(=N)N)NC(=O)[C@H](CCCNC(=N)N)NC(=O)[C@H](CCCCN)NC(=O)[C@H](CCCCN)NC(=O)[C@@H](N)CCCNC(=N)N)C(C)C)C(C)C)C(=O)N1CCC[C@H]1C(=O)N1CCC[C@H]1C(=O)N[C@@H](CO)C(=O)N1CCC[C@H]1C(=O)N[C@@H](CCCNC(=N)N)C(=O)N1CCC[C@H]1C(=O)O [TAT-αSH3] (H-RKKRRQRRRSVSVGMPPSPRP-OH),Protection of insulin-secreting cells against IL-1β-induced death,Pancreatic βTC-3 cells,protects insulin-secreting cells against IL-1β-induced death
same,Protection of neurons against NMDA-induced death,Rat cortical neurons,completely protected
